Changes are numbered by the printed parent chain. The list shows a part of the results, in another mix than the full data. Calls are pooled over several reports, among them a noisy single-well screen. The list shows a part of the results.
Experiments:
Settings in all cases: stereoisomer not certain
[1] = molecular target: T1, OR1L8 (Homo sapiens) (UniProt Q8NGR8)
T1 sequence (whole entry): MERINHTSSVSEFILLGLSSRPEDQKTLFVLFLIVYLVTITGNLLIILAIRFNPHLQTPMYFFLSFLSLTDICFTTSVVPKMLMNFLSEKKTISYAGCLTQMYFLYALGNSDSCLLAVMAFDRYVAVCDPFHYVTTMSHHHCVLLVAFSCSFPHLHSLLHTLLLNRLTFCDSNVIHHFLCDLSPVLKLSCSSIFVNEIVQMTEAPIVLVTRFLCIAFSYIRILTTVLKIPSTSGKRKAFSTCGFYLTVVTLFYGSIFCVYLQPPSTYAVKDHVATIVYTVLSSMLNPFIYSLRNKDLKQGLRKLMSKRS
Outline: (§1)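 Assay methods differ from source to source, frequently being transient luciferase assays in mammalian cell lines. For each receptor–molecule pair, the label responsive (active) applies when the original authors judged the measured signal statistically different from baseline, and non-responsive (inactive) applies otherwise.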

Chains of the proteins cited; added tags and fusions are not shown. Lines headed by an entry give the natural chain unless they say otherwise; changes in a name come on top. A line that says so, or that is headed by a name, gives the form on record, which may keep a tag or linker.
UniProt Q96R45: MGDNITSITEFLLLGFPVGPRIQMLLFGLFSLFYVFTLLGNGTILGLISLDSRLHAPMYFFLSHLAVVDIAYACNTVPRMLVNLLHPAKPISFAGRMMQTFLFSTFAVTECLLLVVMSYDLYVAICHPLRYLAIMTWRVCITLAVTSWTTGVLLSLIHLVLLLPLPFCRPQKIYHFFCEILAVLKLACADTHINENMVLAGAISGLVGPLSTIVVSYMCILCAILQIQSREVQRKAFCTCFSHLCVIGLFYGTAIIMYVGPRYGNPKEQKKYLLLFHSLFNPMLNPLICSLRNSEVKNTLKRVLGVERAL
OR2A2, as listed by the source: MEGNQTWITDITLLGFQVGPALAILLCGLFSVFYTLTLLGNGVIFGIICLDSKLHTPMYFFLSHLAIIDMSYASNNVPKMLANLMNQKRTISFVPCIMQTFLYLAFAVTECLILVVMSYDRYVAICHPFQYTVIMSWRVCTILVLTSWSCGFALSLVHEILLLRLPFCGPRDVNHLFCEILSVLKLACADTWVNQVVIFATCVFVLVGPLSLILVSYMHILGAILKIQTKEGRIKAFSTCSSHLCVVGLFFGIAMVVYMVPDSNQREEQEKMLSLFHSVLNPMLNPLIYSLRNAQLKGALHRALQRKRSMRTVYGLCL
OR2A7, as listed by the source: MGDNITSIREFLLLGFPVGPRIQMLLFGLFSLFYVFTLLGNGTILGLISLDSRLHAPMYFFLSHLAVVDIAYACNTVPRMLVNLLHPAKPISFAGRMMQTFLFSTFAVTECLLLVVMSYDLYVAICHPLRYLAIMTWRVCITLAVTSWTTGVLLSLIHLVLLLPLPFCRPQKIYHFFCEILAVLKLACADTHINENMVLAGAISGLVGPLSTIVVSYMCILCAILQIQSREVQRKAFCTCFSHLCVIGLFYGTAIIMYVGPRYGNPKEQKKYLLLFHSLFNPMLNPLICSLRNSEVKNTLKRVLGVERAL

[2] = system: T2, OR1M1
T2 sequence (whole entry): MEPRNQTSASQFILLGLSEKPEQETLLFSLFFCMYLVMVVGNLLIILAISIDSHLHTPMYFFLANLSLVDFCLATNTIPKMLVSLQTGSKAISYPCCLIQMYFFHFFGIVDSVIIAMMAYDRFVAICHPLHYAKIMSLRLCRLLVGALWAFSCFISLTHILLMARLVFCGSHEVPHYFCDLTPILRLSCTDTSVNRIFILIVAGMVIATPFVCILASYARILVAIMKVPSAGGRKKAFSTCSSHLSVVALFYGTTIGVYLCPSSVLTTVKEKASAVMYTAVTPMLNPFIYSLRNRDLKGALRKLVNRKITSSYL
Outline: as §1

[3] = molecular target: T3, OR1N1 (Homo sapiens) (UniProt Q8NGS0)
T3 sequence (whole entry): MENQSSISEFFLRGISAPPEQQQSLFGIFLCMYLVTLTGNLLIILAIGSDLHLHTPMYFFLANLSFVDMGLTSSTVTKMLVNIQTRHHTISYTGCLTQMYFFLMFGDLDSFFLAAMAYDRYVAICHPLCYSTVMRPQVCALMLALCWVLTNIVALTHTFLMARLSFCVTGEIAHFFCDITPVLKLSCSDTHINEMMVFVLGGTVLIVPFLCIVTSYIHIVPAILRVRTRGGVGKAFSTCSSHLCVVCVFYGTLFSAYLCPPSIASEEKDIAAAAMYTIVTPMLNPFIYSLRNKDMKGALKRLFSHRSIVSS
Outline: as §1

[4] = molecular target: T4, OR1N2 (Homo sapiens) (UniProt Q8NGR9)
T4 sequence (whole entry): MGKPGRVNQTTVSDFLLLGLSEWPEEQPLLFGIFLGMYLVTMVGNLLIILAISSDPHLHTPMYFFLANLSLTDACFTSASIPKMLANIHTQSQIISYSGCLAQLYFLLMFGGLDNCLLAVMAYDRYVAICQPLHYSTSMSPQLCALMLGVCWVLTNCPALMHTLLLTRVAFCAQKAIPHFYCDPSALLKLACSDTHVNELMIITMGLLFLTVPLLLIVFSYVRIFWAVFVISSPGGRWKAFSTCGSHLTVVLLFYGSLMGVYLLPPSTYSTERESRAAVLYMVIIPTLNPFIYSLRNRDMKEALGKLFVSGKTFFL
Outline: as §1

[5] = system: T5, OR1N2
T5 sequence (whole entry): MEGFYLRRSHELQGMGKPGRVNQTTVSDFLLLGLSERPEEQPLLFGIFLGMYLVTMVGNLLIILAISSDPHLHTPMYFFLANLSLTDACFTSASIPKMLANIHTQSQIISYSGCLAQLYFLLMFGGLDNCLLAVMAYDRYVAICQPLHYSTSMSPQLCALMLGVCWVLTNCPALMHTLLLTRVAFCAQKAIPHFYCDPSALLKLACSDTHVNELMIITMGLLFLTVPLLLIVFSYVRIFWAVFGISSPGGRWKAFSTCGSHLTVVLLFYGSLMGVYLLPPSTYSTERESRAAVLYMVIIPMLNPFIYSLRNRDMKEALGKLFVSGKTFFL
Outline: as §1

[6] = system: T6, OR1Q1
T6 sequence (whole entry): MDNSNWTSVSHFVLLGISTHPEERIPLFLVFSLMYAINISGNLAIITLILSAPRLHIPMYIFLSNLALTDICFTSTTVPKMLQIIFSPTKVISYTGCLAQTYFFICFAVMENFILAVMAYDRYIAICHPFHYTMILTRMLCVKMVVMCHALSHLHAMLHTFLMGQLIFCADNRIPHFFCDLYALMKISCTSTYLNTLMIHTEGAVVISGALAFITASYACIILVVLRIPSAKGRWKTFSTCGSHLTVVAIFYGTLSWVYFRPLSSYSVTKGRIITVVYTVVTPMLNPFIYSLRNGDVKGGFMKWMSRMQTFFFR
Outline: as §1

[7] = system: T7, OR1S1
T7 sequence (whole entry): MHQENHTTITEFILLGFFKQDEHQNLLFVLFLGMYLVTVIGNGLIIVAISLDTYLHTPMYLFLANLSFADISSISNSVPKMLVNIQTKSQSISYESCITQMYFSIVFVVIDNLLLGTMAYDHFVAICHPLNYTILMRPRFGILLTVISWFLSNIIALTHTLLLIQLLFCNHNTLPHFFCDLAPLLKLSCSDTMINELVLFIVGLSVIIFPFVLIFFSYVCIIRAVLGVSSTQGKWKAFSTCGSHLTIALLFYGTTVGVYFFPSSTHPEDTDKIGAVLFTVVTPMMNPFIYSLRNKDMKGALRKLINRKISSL
Outline: as §1

[8] = system: T8, OR1S2
T8 sequence (whole entry): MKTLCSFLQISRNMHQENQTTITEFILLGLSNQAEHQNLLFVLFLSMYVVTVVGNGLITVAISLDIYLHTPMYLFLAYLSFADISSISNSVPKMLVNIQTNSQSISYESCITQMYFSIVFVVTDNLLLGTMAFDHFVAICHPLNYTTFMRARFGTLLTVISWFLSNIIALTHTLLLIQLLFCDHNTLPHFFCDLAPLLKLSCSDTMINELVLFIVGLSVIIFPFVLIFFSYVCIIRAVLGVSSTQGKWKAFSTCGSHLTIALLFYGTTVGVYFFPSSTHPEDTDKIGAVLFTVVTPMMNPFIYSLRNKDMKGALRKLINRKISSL
Outline: as §1

[9] = molecular target: T9, OR2A12 (Homo sapiens) (UniProt Q8NGT7)
T9 sequence (whole entry): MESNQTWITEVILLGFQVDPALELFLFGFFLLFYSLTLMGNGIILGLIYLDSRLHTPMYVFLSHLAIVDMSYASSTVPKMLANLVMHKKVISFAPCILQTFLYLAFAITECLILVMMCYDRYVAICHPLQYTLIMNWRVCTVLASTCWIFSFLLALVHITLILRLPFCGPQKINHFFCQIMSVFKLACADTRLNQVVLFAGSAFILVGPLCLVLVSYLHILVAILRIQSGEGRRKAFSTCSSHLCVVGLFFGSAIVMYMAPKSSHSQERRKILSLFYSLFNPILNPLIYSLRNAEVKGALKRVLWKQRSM
Outline: as §1

[10] = molecular target: T10, OR2A14 (Homo sapiens) (UniProt Q96R47)
T10 sequence (whole entry): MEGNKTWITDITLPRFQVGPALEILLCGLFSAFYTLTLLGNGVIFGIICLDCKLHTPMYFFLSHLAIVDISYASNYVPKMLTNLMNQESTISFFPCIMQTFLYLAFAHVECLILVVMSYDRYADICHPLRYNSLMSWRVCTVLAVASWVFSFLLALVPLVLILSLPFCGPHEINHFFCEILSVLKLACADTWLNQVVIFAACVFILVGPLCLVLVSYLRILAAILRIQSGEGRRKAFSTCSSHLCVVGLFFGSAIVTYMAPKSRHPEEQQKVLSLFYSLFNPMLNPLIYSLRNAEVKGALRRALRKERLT
Outline: as §1

[11] = system: T11, OR2A1
T11 sequence (whole entry): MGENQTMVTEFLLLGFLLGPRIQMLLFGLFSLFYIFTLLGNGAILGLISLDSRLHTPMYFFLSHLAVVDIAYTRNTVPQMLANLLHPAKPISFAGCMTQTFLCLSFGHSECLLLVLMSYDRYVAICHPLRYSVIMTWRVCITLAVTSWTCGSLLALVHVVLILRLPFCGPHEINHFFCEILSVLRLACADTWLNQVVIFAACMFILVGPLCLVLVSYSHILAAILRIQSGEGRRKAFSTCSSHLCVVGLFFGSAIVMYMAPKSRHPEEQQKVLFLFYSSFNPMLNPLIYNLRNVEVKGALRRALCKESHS
Outline: as §1

[12] = system: T12, OR2A1; remark: listed apart in the source
T12 sequence (whole entry): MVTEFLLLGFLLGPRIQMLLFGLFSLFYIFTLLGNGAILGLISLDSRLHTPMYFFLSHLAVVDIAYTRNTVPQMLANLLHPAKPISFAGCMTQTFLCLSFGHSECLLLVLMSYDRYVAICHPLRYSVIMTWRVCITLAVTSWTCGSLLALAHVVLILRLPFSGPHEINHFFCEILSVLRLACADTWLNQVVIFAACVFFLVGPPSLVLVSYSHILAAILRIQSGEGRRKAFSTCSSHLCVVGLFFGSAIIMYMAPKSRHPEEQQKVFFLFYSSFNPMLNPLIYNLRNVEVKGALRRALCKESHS
Outline: as §1

[13] = molecular target: T13, OR2A2 (Homo sapiens) (UniProt Q6IF42)
T13 sequence (whole entry): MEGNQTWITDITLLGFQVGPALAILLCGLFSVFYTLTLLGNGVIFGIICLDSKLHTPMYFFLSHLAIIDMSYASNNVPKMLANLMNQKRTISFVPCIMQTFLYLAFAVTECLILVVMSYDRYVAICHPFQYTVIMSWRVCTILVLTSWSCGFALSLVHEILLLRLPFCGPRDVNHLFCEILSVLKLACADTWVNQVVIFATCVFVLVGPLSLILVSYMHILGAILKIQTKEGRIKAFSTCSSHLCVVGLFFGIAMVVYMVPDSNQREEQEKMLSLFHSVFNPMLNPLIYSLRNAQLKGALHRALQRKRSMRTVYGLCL
Outline: as §1

[14] = molecular target: T14, OR2A25 (Homo sapiens) (UniProt A4D2G3)
T14 sequence (whole entry): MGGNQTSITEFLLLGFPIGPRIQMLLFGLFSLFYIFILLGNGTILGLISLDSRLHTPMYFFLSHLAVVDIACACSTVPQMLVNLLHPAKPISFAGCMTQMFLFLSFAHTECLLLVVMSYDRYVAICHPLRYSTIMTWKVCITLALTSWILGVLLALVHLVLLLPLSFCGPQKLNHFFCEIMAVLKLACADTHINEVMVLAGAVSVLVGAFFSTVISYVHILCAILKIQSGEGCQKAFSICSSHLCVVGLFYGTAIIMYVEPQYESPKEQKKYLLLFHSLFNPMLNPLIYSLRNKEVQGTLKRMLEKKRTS
Outline: as §1

[15] = system: T15, OR2A2
T15 sequence (whole entry): T13 sequence (whole entry) with F280L
Outline: as §1

[16] = molecular target: T16, OR2A4 (Homo sapiens) (UniProt O95047)
T16 sequence (whole entry): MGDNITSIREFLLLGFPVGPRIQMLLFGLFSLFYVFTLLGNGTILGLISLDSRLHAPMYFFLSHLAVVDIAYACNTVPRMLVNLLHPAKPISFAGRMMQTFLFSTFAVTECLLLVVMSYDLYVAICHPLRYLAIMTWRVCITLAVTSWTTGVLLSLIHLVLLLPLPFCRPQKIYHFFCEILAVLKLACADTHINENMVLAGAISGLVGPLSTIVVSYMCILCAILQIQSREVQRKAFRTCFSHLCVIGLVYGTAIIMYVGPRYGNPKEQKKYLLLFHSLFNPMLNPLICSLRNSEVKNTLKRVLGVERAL
Outline: as §1

[17] = molecular target: T17, OR2A5 (Homo sapiens) (UniProt Q96R48)
T17 sequence (whole entry): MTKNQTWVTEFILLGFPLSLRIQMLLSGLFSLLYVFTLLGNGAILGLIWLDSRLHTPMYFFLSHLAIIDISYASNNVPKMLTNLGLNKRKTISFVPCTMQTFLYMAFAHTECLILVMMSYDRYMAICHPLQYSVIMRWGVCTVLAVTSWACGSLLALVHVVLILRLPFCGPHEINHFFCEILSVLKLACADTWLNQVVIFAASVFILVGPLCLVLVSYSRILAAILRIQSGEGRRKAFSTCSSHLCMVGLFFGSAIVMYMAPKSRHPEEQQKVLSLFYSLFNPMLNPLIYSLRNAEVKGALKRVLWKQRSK
Outline: as §1

[18] = molecular target: T18, OR2A7 (Homo sapiens) (UniProt Q96R45)
T18 sequence (whole entry): T16 sequence (whole entry) with R9T, R238C, V250F
Outline: as §1

[19] = system: T19, OR2A7
T19 sequence (whole entry): T16 sequence (whole entry) with R238C, V250F
Outline: as §1

[20] = molecular target: T20, OR2AG1 (Homo sapiens) (UniProt Q9H205)
T20 sequence (whole entry): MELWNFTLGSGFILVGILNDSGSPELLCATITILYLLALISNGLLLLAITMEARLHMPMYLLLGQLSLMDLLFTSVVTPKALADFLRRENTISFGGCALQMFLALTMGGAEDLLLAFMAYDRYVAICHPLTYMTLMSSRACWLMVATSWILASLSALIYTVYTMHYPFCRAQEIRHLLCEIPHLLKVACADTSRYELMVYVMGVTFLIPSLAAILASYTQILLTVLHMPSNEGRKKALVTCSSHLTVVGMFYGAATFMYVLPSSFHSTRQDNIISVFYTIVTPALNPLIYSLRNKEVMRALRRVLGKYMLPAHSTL
Outline: as §1

Measured: odorant receptor agonist call

CCCCOC(C)=O
active: [7]
inactive: all other assays above

CS
inactive: all assays above
